Some results were stated once for a whole list of compounds, not compound by compound.
Legend:
Type in all cases: in vivo
[1] = system: Red spider mite (Tetranychus kanzawai); assay: Red spider mite test on sprayed cowpea beans; conditions: 500 ppm; mites on cowpea beans, 72 hours after treatment; in comparison with untreated controls
[2] = system: yellow fever mosquito (Aedes aegypti); conditions: 2500 ppm; larval mortality after 2 days; in comparison with untreated controls
Method: For evaluating control of yellow fever mosquito (Aedes aegypti) the test unit consisted of 96-well-microtiter plates containing 200 μl of tap water per well and 5-15 freshly hatched A. aegypti larvae. The compounds or mixtures were formulated using a solution containing 75% water and 25% DMSO. Different concentrations of formulated compounds or mixtures were sprayed onto the insect diet at 2.5 μl, using a custom built micro atomizer, at two replications. After application, microtiter plates were incubated at 28±1° C., 80±5% RH for 2 days. Larval mortality was then visually assessed.

[3] = system: Silverleaf whitefly (Bemisia argentifolii); assay: Silverleaf whitefly test on sprayed cotton plants; conditions: 500 ppm; whitefly adults on cotton, 3 days after treatment; in comparison with untreated controls
Method: The active compounds were formulated in cyclohexanone as a 10,000 ppm solution supplied in 1.3 ml ABgene® tubes. These tubes were inserted into an automated electrostatic sprayer equipped with an atomizing nozzle and they served as stock solutions for which lower dilutions were made in 50% acetone:50% water (v/v). A nonionic surfactant (Kinetic®) was included in the solution at a volume of 0.01% (v/v). Cotton plants at the cotyledon stage (one plant per pot) were sprayed by an automated electrostatic plant sprayer equipped with an atomizing spray nozzle. The plants were dried in the sprayer fume hood and then removed from the sprayer. Each pot was placed into a plastic cup and 10 to 12 whitefly adults (approximately 3-5 days old) were introduced. The insects were collected using an aspirator and 0.6 cm, nontoxic Tygon® tubing (R-3603) connected to a barrier pipette tip. The tip, containing the collected insects, was then gently inserted into the soil containing the treated plant, allowing insects to crawl out of the tip to reach the foliage for feeding. Cups were covered with a reusable screened lid (150-micron mesh polyester screen PeCap from Tetko, Inc.). […] Mortality was assessed 3 days after treatment, compared to untreated control plants.

[4] = system: boll weevil (Anthonomus grandis); assay: Boll weevil control, 24-well microtiter plates with insect diet and eggs; conditions: 2500 ppm; egg and larval mortality after 5 days; in comparison with untreated controls
Method: For evaluating control of boll weevil (Anthonomus grandis) the test unit consisted of 24-well-microtiter plates containing an insect diet and 20-30 A. grandis eggs. The compounds were formulated using a solution containing 75% v/v water and 25% v/v DMSO. Different concentrations of formulated compounds were sprayed onto the insect diet at 20 μl, using a custom built micro atomizer, at two replications. After application, microtiter plates were incubated at about 23±1° C. and about 50±5% relative humidity for 5 days. Egg and larval mortality was then visually assessed.

[5] = system: Rice brown plant hopper (Nilaparvata lugens); assay: Rice brown plant hopper test on sprayed rice seedlings; conditions: 500 ppm; adults on rice seedlings, after 72 hours; in comparison with untreated controls
[6] = system: Orchid thrips (Dichromothrips corbetti); assay: Orchid thrips floral-immersion test; conditions: 500 ppm; adult thrips, after 4 days; in comparison with untreated controls

| Compound | mortality [2] | other results |
| --- | --- | --- |
| N#CC(Cc1ccc(C(F)(F)F)cc1)(C(N)=O)c1ccc(F)cc1 (stereo not shown) [II-2] | at least 75% | mortality [1]: at least 75% |
| C#Cc1ccc(CC(C#N)(C(N)=O)c2ccc(F)cc2)cc1 (stereo not shown) [II-3] | at least 75% |  |
| N#CC(Cc1ccc(C(F)(F)F)cc1)(C(N)=S)c1ccc(F)cc1 (stereo not shown) [II-4] | at least 75% |  |
| N#CC(Cc1ccc(C(F)(F)F)nc1)(C(N)=O)c1ccc(OC(F)(F)F)cc1 (stereo not shown) [II-5] | at least 75% |  |
| C#Cc1ccc(CC(C#N)(C(N)=S)c2ccc(F)cc2)cc1 (stereo not shown) [II-6] | at least 75% | mortality [3]: at least 75% |
| N#CC(Cc1ccc(C(F)(F)F)cc1)(C(N)=S)c1cc(F)cc(F)c1 (stereo not shown) [II-7] | at least 75% | mortality [3]: at least 75% |
| C#Cc1ccc(CC(C#N)(C(N)=S)c2cc(F)cc(F)c2)cc1 (stereo not shown) [II-8] | at least 75% |  |
| C#Cc1ccc(CC(C#N)(C(N)=S)c2cc(F)c(F)c(F)c2)cc1 (stereo not shown) [II-9] | at least 75% |  |
| N#CC(Cc1ccc(C(F)(F)F)cc1)(C(N)=S)c1cc(F)c(F)c(F)c1 (stereo not shown) [II-10] | at least 75% |  |
| CC(c1ccc(C(F)(F)F)cc1)C(C#N)(C(N)=S)c1ccc(F)cc1 (stereo not shown) [II-11] | at least 75% | mortality [1]: at least 75% |
| CC(c1ccc(C(F)(F)F)cc1)C(C#N)(C(N)=S)c1cc(F)cc(F)c1 (stereo not shown) [II-12] | at least 75% |  |
| CC(c1ccc(C(F)(F)F)cc1)C(C#N)(C(N)=S)c1cc(F)c(F)c(F)c1 (stereo not shown) [II-13] | at least 75% |  |
| CC(c1ccc(C(F)(F)F)cn1)C(C#N)(C(N)=S)c1cc(F)cc(F)c1 (stereo not shown) [II-14] | at least 75% |  |
| CC(c1ccc(C(F)(F)F)cn1)C(C#N)(C(N)=S)c1ccc(F)cc1 (stereo not shown) [II-15] | at least 75% |  |
| CC(c1ccc(C(F)(F)F)cn1)C(C#N)(C(N)=S)c1cc(F)c(F)c(F)c1 (stereo not shown) [II-16] | at least 75% |  |
| N#CC(Cc1ccc(C(F)(F)F)cc1)(C(N)=O)c1cc(F)cc(F)c1 (stereo not shown) [II-17] | at least 75% |  |
| N#CC(Cc1ccc(C(F)(F)F)cc1)(C(N)=O)c1cc(F)c(F)c(F)c1 (stereo not shown) [II-18] | at least 75% |  |
| CC(c1ccc(C(F)(F)F)cc1)C(C#N)(C(N)=O)c1ccc(F)cc1 (stereo not shown) [II-19] | at least 75% |  |
| CC(c1ccc(C(F)(F)F)cc1)C(C#N)(C(N)=O)c1cc(F)c(F)c(F)c1 (stereo not shown) [II-20] | at least 75% | mortality [4]: at least 75% |
| N#CC(Cc1ccc(C(F)(F)F)c(F)c1)(C(N)=S)c1cc(F)cc(F)c1 (stereo not shown) [II-21] | at least 75% |  |
| CC(c1ccc(Br)cc1)C(C#N)(C(N)=S)c1cc(F)c(F)c(F)c1 (stereo not shown) [II-22] | at least 75% |  |
| C#CC1CCC(CC(C#N)(C(N)=S)c2ccc(F)cc2)CC1 (stereo not shown) [II-25] | at least 75% |  |
| C#Cc1ccc(CC(C#N)(C(=S)NC)c2cc(F)cc(F)c2)cc1 (stereo not shown) [III-2] | at least 75% | mortality [5]: at least 75%; mortality [4]: at least 75% |
| C#Cc1ccc(CC(C#N)(C(=S)NC)c2cc(F)c(F)c(F)c2)cc1 (stereo not shown) [III-3] | at least 75% | mortality [5]: at least 75%; mortality [4]: at least 75% |
| C#Cc1ccc(CC(C#N)(C(=O)NC)c2cc(F)cc(F)c2)cc1 (stereo not shown) [III-5] |  | mortality [5]: at least 75%; mortality [4]: at least 75% |
| C#Cc1ccc(CC(C#N)(C(=O)NC)c2cc(F)c(F)c(F)c2)cc1 (stereo not shown) [III-6] |  | mortality [5]: at least 75%; mortality [6]: at least 75% |
